Data source: PubChem BioAssay AID1259405 (NCATS, 2018)
The whole screen tested about 50,000 reagents; this is a random part of them. Over the whole deposit, about 4,000 (8%) were called active. 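Mouse siRNA library applied to hamster cells; one well for each siRNA.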 Unmarked entries are inactive. The numbers tell different reagents against one gene apart. No sequences are given here.

Purpose: 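Silenced genes that increase secreted GFP made by CHO cells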 (primary screen)
Cell system: Chinese hamster CHO-K1 ovary cells with stable secreted eGFP expression
Knock-down reagent: single siRNA against mouse genes, 0.8 pmol siRNA per well (2 µl of 400 nM stock)
Duration: 3 days
Detection: 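Per-well intracellular GFP measured by laser scanning cytometry, plus viability from ATP luminescence, each relative to plate median of non-targeting control wells, in %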
Scale: GFP, % of control: higher = more GFP per well, higher productivity; viability (ATP), % of control: higher = more viable cells (more ATP)
Hit rule: 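Called active when intracellular GFP, relative to negative control, is at or above 120%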

{"gene symbol": "Tars1 (GeneID 110960)", "reagent no.": 1, "GFP, % of control": 89.3, "viability (ATP), % of control": 74.4}
{"gene symbol": "Tars1 (GeneID 110960)", "reagent no.": 2, "GFP, % of control": 78.2, "viability (ATP), % of control": 73.3}
{"gene symbol": "Tars1 (GeneID 110960)", "reagent no.": 3, "GFP, % of control": 73.6, "viability (ATP), % of control": 95.8}
{"gene symbol": "Or5w8 (GeneID 258631)", "reagent no.": 1, "GFP, % of control": 66, "viability (ATP), % of control": 53.1}
{"gene symbol": "Or5w8 (GeneID 258631)", "reagent no.": 2, "GFP, % of control": 82.1, "viability (ATP), % of control": 81.9}
{"gene symbol": "Or5w8 (GeneID 258631)", "reagent no.": 3, "GFP, % of control": 64.8, "viability (ATP), % of control": 70.4}
{"gene symbol": "Or6c6c (GeneID 258068)", "reagent no.": 1, "GFP, % of control": 49.7, "viability (ATP), % of control": 59.3}
{"gene symbol": "Or6c6c (GeneID 258068)", "reagent no.": 2, "GFP, % of control": 58.5, "viability (ATP), % of control": 56.2}
{"gene symbol": "Or6c6c (GeneID 258068)", "reagent no.": 3, "GFP, % of control": 105, "viability (ATP), % of control": 1.36}
{"gene symbol": "Odf4 (GeneID 252868)", "reagent no.": 1, "GFP, % of control": 68.3, "viability (ATP), % of control": 66}
{"gene symbol": "Odf4 (GeneID 252868)", "reagent no.": 2, "GFP, % of control": "159 (active)", "viability (ATP), % of control": 52.5}
{"gene symbol": "Odf4 (GeneID 252868)", "reagent no.": 3, "GFP, % of control": 68.3, "viability (ATP), % of control": 80.4}
{"gene symbol": "Rps7 (GeneID 20115)", "reagent no.": 1, "GFP, % of control": 33.8, "viability (ATP), % of control": 16.2}
{"gene symbol": "Rps7 (GeneID 20115)", "reagent no.": 2, "GFP, % of control": 67, "viability (ATP), % of control": 44.9}
{"gene symbol": "Rps7 (GeneID 20115)", "reagent no.": 3, "GFP, % of control": 74.6, "viability (ATP), % of control": 68.1}
{"gene symbol": "Klhdc8b (GeneID 78267)", "reagent no.": 1, "GFP, % of control": "174 (active)", "viability (ATP), % of control": 40.6}
{"gene symbol": "Klhdc8b (GeneID 78267)", "reagent no.": 2, "GFP, % of control": 86.3, "viability (ATP), % of control": 48.5}
{"gene symbol": "Klhdc8b (GeneID 78267)", "reagent no.": 3, "GFP, % of control": "131 (active)", "viability (ATP), % of control": 83}

Copied from the list:
Under “viability (ATP), % of control”, Or5w8 (GeneID 258631) #2 is entered as 81.9
Klhdc8b (GeneID 78267) #3, GFP, % of control = 131 (active)
